# PubChem BioAssay AID2551 (National Center for Advancing Translational Sciences (NCATS), 2010)
# Protein sequences, listed by entry. Tags and fused reporters are not part of them. Lines headed by an entry give the natural chain unless they say otherwise; changes in a name come on top.
# UniProt P51450: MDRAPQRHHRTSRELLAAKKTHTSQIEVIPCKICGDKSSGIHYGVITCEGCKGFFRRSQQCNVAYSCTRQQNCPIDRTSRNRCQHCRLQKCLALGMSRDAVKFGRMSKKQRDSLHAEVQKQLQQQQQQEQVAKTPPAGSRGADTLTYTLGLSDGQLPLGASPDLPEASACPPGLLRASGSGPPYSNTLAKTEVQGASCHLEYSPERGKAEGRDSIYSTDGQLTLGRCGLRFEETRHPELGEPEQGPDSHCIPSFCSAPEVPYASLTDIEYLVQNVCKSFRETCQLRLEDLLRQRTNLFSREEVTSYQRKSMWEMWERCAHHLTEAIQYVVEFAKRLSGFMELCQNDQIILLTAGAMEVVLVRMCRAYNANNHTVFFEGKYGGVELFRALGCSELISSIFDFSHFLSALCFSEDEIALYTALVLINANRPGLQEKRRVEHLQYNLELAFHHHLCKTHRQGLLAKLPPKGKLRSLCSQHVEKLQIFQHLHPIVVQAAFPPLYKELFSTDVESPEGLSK
# About 17,000 (5.5%) of roughly 310,000 compounds were called active. Inconclusive means that the source gave no clear call. Such entries were picked first, then a sample of the others. The call rests on the fitted dose curve; in most records, active means well fitted inhibition curve with a large enough effect; inconclusive means small, poorly fitted or top-dose-only effect, or effect the other way; inactive means no such curve, though single readings can be large or run the other way. Potencies beside an inconclusive call are fits to weak or partial responses and may not hold up.
# Target: Nuclear receptor ROR-gamma (Mus musculus) (UniProt P51450)
# Assay: qHTS for inhibitors of ROR gamma transcriptional activity; further: nearly all actives have a fitted effect of over 60% in size
# Details: Drosophila S2 Gal4-RORgamma UAS-luciferase reporter, 20 h; series mostly up to 53.6 µM
# Outline: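 Using a luciferase readout, inhibitors were identified by reduced reporter activity in Drosophila cells coexpressing a copper-inducible Gal4–ROR gamma fusion and UAS-driven Photinus luciferase, incubated 20 hr after 700 uM copper sulfate.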
# Potency means the concentration at half of the fitted maximal effect.
row,Compound,Potency
1,COc1ccc(NC(=O)CCNC(=O)Cn2ccc3ccccc3c2=O)cc1Cl,inactive
2,CCOc1ccc(C(=O)Nc2cccc(-c3cc4ccccc4oc3=O)c2)cc1[N+](=O)[O-],inactive
3,Nc1nnc(-c2ccc(Cl)c([N+](=O)[O-])c2)s1,inactive
4,COc1ccc2oc(C(=O)OCC(=O)NC(=O)c3ccccc3)c(C)c2c1,inactive
5,O=C(N/N=C/c1cccs1)c1cc(C2CC2)nc2ccccc12,active: 10 µM
6,O=C(N/N=C/c1cccs1)c1cncc(Br)c1,active: 1 µM
7,O=C(Nc1ncccc1O)c1cccc(S(=O)(=O)N2CCc3ccccc32)c1,"inconclusive: 35.5 µM [inhibitor, single point]"
8,S=c1[nH]nc(-c2cccs2)n1/N=C/c1cccs1,"inconclusive: 11.2 µM [inhibitor, partial curve, poor fit]"
9,CC(C)c1ccc(NC(=O)c2ccccc2NC(=O)C2CC=CCC2C(=O)O)cc1 (stereo unspecified),"inconclusive: 20 µM [activator, partial curve]"
10,Cc1ccc2nc(-c3ccc(NC(=O)Cc4cccs4)cc3)[nH]c2c1,"inconclusive: 11.2 µM [inhibitor, partial curve]"
11,CCOc1ccccc1NS(=O)(=O)c1cn(C)nc1C,inactive
12,CN1CCc2nc(NC(=O)c3cccc(S(=O)(=O)N4CCc5ccccc54)c3)sc2C1,"inconclusive: 11.2 µM [inhibitor, single point]"
13,Cc1cc(C)nc(Nc2nc3ccccc3s2)n1,"inconclusive: 3.55 µM [activator, full curve]"
14,Cc1nc2ccc(Br)cn2c1C(=O)N/N=C\c1ccccc1[N+](=O)[O-],"inconclusive: 25.1 µM [inhibitor, single point]"
15,Cc1nnc(SCC(=O)c2ccc([N+](=O)[O-])cc2)s1,"inconclusive: 35.5 µM [inhibitor, single point]"
16,CCN(CC)CCNc1nc(-c2ccccc2)nnc1C(F)(F)F,"inconclusive: 35.5 µM [activator, single point]"
17,COc1ccc(C)cc1NC(=O)C(=O)NNC(=O)c1ccco1,"inconclusive: 35.5 µM [inhibitor, single point]"
18,COc1ccc2nc(NC(=O)c3sc4nc(C)cc(C)c4c3N)sc2c1,active: 0.0398 µM
19,Cc1cccc(-n2c3nc(=O)[nH]c(=O)c-3cc3cc([N+](=O)[O-])ccc32)c1,"inconclusive: 22.4 µM [inhibitor, single point]"
20,CCOc1ccccc1C(=O)Nc1cc2c(cc1N1CCCC1)n(CC)c(=O)n2CC,"inconclusive: 35.5 µM [inhibitor, single point]"
21,COc1ccc2c(c1)C(=O)CC(c1ccccc1F)O2 (stereo unspecified),inactive
22,Cc1cc2c(cc1S(=O)(=O)N1CCc3ccccc31)NC(=O)CO2,"inconclusive: 35.5 µM [activator, single point]"
23,CCC(C(=O)Nc1ncc(C)s1)c1ccccc1 (stereo unspecified),"inconclusive: 20 µM [inhibitor, single point]"

row,Compound,Potency
1,Cc1ccc(NC(=O)Nc2cccs2)nc1,"inconclusive: 6.31 µM [activator, single point]"
2,Cc1cccc(CSc2nc3c(cc2C#N)CCC3)c1,"inconclusive: 2 µM [activator, partial curve]"
3,COc1cc(OC)cc(-c2nnc3n2N=C(c2ccc(OC)cc2OC)CS3)c1,"inconclusive: 10 µM [inhibitor, single point]"
4,Cc1ccnc(N/N=C/c2ccccc2)n1,"inconclusive: 10 µM [inhibitor, single point]"
5,CCOC(=O)/C(N)=C/c1ncc(C(F)(F)F)cc1Cl,"inconclusive: 15.8 µM [inhibitor, partial curve, poor fit]"
6,CC(C1CCN(Cc2cn(C)nc2-c2cccc(Cl)c2)CC1)N1CCOCC1 (stereo unspecified),inactive
7,COc1ccccc1/C=N/NC(=S)NCc1ccco1,active: 2 µM
8,CCOc1ccc(CCNC(=O)CCS(=O)(=O)c2ccc(Cl)cc2)cc1OCC,inactive
9,CN(C)S(=O)(=O)c1ccc(S(=O)(=O)N(CC(=O)Nc2ccccc2)Cc2ccco2)cc1,"inconclusive: 35.5 µM [inhibitor, single point]"
10,Cc1ccc2c(c1)C(O)(CC(=O)c1ccc3c(c1)OCO3)C(=O)N2 (stereo unspecified),"inconclusive: 35.5 µM [activator, single point]"
11,Cc1ccc(C(=O)Nc2ccc(Cc3ccncc3)cc2)cc1[N+](=O)[O-],"inconclusive: 14.1 µM [activator, single point]"
12,Cc1cccc(N2C(=O)CC(Sc3nc(C)cc(C)n3)C2=O)c1 (stereo unspecified),inactive
13,CN1CCN(c2nc(-c3ccc(N(C)C)cc3)nc3ccccc23)CC1,"inconclusive: 14.1 µM [inhibitor, single point]"
14,CC(C)(C)c1ccc(-c2nc(-c3ccncc3)no2)cc1,"inconclusive: 3.16 µM [inhibitor, partial curve, poor fit]"
15,O=C1C2C3C=CC(C3)C2C(=O)N1Nc1c(Cl)cc(Cl)cc1Cl (stereo unspecified),inactive
16,CCC(C)(C)NC(=O)c1cc(S(=O)(=O)N2CCc3ccccc32)cn1C,"inconclusive: 22.4 µM [activator, single point]"
17,C=CCSc1ccccc1C(=O)Nc1ncn[nH]1,"inconclusive: 15.8 µM [inhibitor, partial curve, poor fit]"
18,Nc1sc(-c2ccccc2)n[n+]1Cc1cccc2cccnc12,"inconclusive: 20 µM [inhibitor, partial curve, poor fit]"
19,S=c1[nH]nc(Nc2ccccc2Cl)s1,active: 7.94 µM
20,O=C(NCC1COc2ccccc2O1)c1ccc(NC(=O)C(c2ccccc2)c2ccccc2)cc1 (stereo unspecified),"inconclusive: 35.5 µM [activator, single point]"
21,Oc1ccc(C2Nc3cccc4cccc(c34)N2)cc1,"inconclusive: 12.6 µM [inhibitor, partial curve]"
22,COc1ccc(NS(=O)(=O)c2ccc(SC)cc2)cc1,"inconclusive: 35.5 µM [inhibitor, single point]"
23,CCc1ccc(-n2c(Cc3ccccc3)n[nH]c2=S)cc1,active: 2 µM

# Rewritten tab-delimited: entries from further up.
row	Compound	Potency
2	CCOc1ccc(C(=O)Nc2cccc(-c3cc4ccccc4oc3=O)c2)cc1[N+](=O)[O-]	inactive
7	O=C(Nc1ncccc1O)c1cccc(S(=O)(=O)N2CCc3ccccc32)c1	inconclusive: 35.5 µM [inhibitor, single point]
14	Cc1nc2ccc(Br)cn2c1C(=O)N/N=C\c1ccccc1[N+](=O)[O-]	inconclusive: 25.1 µM [inhibitor, single point]
19	Cc1cccc(-n2c3nc(=O)[nH]c(=O)c-3cc3cc([N+](=O)[O-])ccc32)c1	inconclusive: 22.4 µM [inhibitor, single point]
20	CCOc1ccccc1C(=O)Nc1cc2c(cc1N1CCCC1)n(CC)c(=O)n2CC	inconclusive: 35.5 µM [inhibitor, single point]
23	CCC(C(=O)Nc1ncc(C)s1)c1ccccc1 (stereo unspecified)	inconclusive: 20 µM [inhibitor, single point]
5	CCOC(=O)/C(N)=C/c1ncc(C(F)(F)F)cc1Cl	inconclusive: 15.8 µM [inhibitor, partial curve, poor fit]
6	CC(C1CCN(Cc2cn(C)nc2-c2cccc(Cl)c2)CC1)N1CCOCC1 (stereo unspecified)	inactive
12	Cc1cccc(N2C(=O)CC(Sc3nc(C)cc(C)n3)C2=O)c1 (stereo unspecified)	inactive
13	CN1CCN(c2nc(-c3ccc(N(C)C)cc3)nc3ccccc23)CC1	inconclusive: 14.1 µM [inhibitor, single point]
14	CC(C)(C)c1ccc(-c2nc(-c3ccncc3)no2)cc1	inconclusive: 3.16 µM [inhibitor, partial curve, poor fit]
21	Oc1ccc(C2Nc3cccc4cccc(c34)N2)cc1	inconclusive: 12.6 µM [inhibitor, partial curve]
22	COc1ccc(NS(=O)(=O)c2ccc(SC)cc2)cc1	inconclusive: 35.5 µM [inhibitor, single point]
